Assay results reported in US5391540A, “Substituted pyridine compounds” (Rohm and Haas Company, priority 1993, dated 1995).
Several values for one entry are separate records, joined by “and”; a condition that tells them apart may be missing. Equal entries are not always repeated. The name of at least one read-out is uncertain.

Tests used:
Assay in all cases: plant injury after spraying emerged plants (Table D)
Format in all cases: in vivo
Set-up in all cases: scale not given here
Cotz = system: Cotz
From the text: (§1) Topsoil (silt loam) is sieved through a screen having 1.27 cm openings. In some of the tests the soil was mixed with fertilizer (1225 g/cu. m of 12/5/9 containing isobutylidene diurea), while in other tests the fertilizer was omitted. This mixture is steam sterilized and then placed in aluminum pans 6.985 cm deep having ten holes in the bottom each 0.635 cm in diameter. The soil mixture is compacted to a depth of 1.27 cm. from the top of the pan. A predetermined number of seeds of each of several dicotyledonous and monocotyledonous annual plant species and/or vegetative propagules for the perennial plant species are placed on the soil and pressed into the soil surface. The seeds and/or vegetative propagules are covered with 1.27 cm of a mixture of 50% topsoil and 50% of a mixture of Canadian sphagnum peat moss, vermiculite and a wetting agent. The pans are then placed on a capillary mat on a greenhouse bench and subirrigated as needed. After the plants reach the desired stage (9 to 14 days, 1 to 3 true leaf stage), each pan (except the control pans) is removed to a spraying chamber and sprayed by means of an atomizer, operating at a spray pressure of 170.3 kPa ([…]) at the application rates noted in Table D. In the spray solution is an amount of an emulsifying agent mixture (35% butylamine salt of dodecylbenzenesulfonic acid and 65% tall oil condensed with ethylene oxide in the ratio of 11 mols of ethylene oxide/mol of tall oil) to give a spray solution or suspension. The spray solution or suspension contains a sufficient amount of the candidate chemical in order to give application rates of the active ingredient corresponding to those shown in Table D below while applying a total amount of solution or suspension equivalent to 1870 L/Ha (200 gallons/acre). The pans are returned to the greenhouse and watered as before and the injury to the plants as compared to the control pans is observed at approximately 10-14 days (usually 11 days).
(§2) In the following Table D the legends used to identify the plant species are the same as those used in the preceding Table B.

Rape = system: Rape
From the text: as §1, §2

Bygr = details: 5.3808 kg/ha
From the text: (§3) Topsoil (silt loam) is sieved through a screen having 1.27 cm openings. […] This mixture is steam sterilized and then placed in aluminum pans 6.985 cm deep having ten holes in the bottom each 0.635 cm in diameter. The soil mixture is compacted to a depth of 1.27 cm. from the top of the pan. A predetermined number of seeds of each of several dicotyledonous and monocotyledonous annual plant species and/or vegetative propagules for the perennial plant species are placed on the soil and pressed into the soil surface. The seeds and/or vegetative propagules are covered with 1.27 cm of a mixture of 50% topsoil and 50% of a mixture of Canadian sphagnum peat moss, vermiculite and a wetting agent. The pans are then placed on a capillary mat on a greenhouse bench and subirrigated as needed.
as §2

Corn = system: Corn
From the text: as §3, §2

Grso = details: 5.3808 kg/ha
From the text: as §3, §2

Hese = system: Hese
From the text: as §3, §2

Lacg = details: 0.0701 kg/ha
From the text: as §3, §2

Prmi = system: Prmi
From the text: as §3, §2

Vele = system: Vele
From the text: as §3, §2

Wibw = system: Wibw
From the text: as §3, §2

Grft = system: Grft
From the text: as §3, §2

Mogl = system: Mogl
From the text: as §3, §2

## COC(=O)c1c(OC)nc(C(F)(F)F)c(C2=NCCS2)c1CC(C)C [Compound 50, 3-pyridinecarboxylic acid, 5-(4,5-dihydro-2-thiazolyl)-2-methoxy-4-(2-methylpropyl)-6-(trifluoromethyl)-, methyl ester]
Cotz; 1.1210 kg/ha
  plant injury rating, Cotz: 2 and 3
Rape; 0.0701 kg/ha
  plant injury rating, Rape: 1 and 2
Rape; 0.2803 kg/ha
  plant injury rating, Rape: 2 and 3
Bygr
  plant injury rating, Bygr: 2 and 3
Corn; 1.1210 kg/ha
  plant injury rating, Corn: 2 and 1
Corn; 5.3808 kg/ha
  plant injury rating, Corn: 2 and 1
Grso
  plant injury rating, Grso: 1 and 2
Hese; 0.2803 kg/ha
  plant injury rating, Hese: 2 and 3
Hese; 1.1210 kg/ha
  plant injury rating, Hese: 2 and 3
Lacg
  plant injury rating, Lacg: 3 and 2
Prmi; 1.1210 kg/ha
  plant injury rating, Prmi: 1 and 2
Prmi; 5.3808 kg/ha
  plant injury rating, Prmi: 2 and 1
Vele; 0.2803 kg/ha
  plant injury rating, Vele: 2 and 3
Vele; 1.1210 kg/ha
  plant injury rating, Vele: 2 and 3
Wibw; 1.1210 kg/ha
  plant injury rating, Wibw: 2 and 3

## COC(=O)c1c(O)nc(C(F)(F)F)c(C(=O)OC)c1CC(C)C [Compound 1, 3,5-pyridinedicarboxylic acid, 2-hydroxy-4-(2-methylpropyl)-6-(trifluoromethyl)-, dimethyl ester]
Cotz; 0.2803 kg/ha
  plant injury rating, Cotz: 1 and 2
Cotz; 1.1210 kg/ha
  plant injury rating, Cotz: 2 and 1
Cotz; 5.3808 kg/ha
  plant injury rating, Cotz: 3 and 2
Rape; 0.2803 kg/ha
  plant injury rating, Rape: 1 and 2
Rape; 5.3808 kg/ha
  plant injury rating, Rape: 3 and 2
Bygr
  plant injury rating, Bygr: 3 and 2
Grft; 1.1210 kg/ha
  plant injury rating, Grft: 2 and 1
Grft; 5.3808 kg/ha
  plant injury rating, Grft: 3 and 2
Grso
  plant injury rating, Grso: 2 and 1
Hese; 5.3808 kg/ha
  plant injury rating, Hese: 4 and 3
Mogl; 0.0701 kg/ha
  plant injury rating, Mogl: 1 and 2
Mogl; 0.2803 kg/ha
  plant injury rating, Mogl: 2 and 1
Mogl; 5.3808 kg/ha
  plant injury rating, Mogl: 2 and 1
Vele; 5.3808 kg/ha
  plant injury rating, Vele: 4 and 2
Wibw; 5.3808 kg/ha
  plant injury rating, Wibw: 3 and 2
